## Library screening results

Data taken from ChEMBL document CHEMBL3988442, “University of Dundee, Small-Polar-MMV Screening Library” (2021).

Values are the deposited “Percent Effect”, in %.
How 0% and 100% were set is not recorded. Most values in the screen are low, and negative values occur.
Compounds were drawn at random from those tested, without regard to their results.
A dash means the value is not listed here; it may have been measured.

Mtb growth Cornell: 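Whole-cell assay for inhibitors of Mycobacterium tuberculosis growth, labelled Cornell in the record; the read-out is not stated. The concentration is filed as 10 mM, unlikely as a test dose, so the dose is not known. Higher means stronger inhibition (inferred from two other growth screens of the library). Size under these conditions: about 53,000 compounds, about 900 of them at 50% or above in at least one test.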
Mtb heat-shock: 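Assay on Mycobacterium tuberculosis, filed only as a heat shock assay from Cornell; the read-out is not stated. The concentration is filed as 10 mM, unlikely as a test dose, so the dose is not known. Direction is inferred from retests: higher values go with stronger inhibition. About 69,000 compounds were tested under these conditions; 1.4% (about 930) showed 50% or more at least once.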

| Compound | Mtb growth Cornell | Mtb heat-shock |
|---|---|---|
| `CCc1csc(C2CCCN(C(=O)c3c[nH]c(C)n3)C2)n1` (stereo not given) | 4.167% | -13.95% |
| `O=C(O)C(F)(F)F.[H][C@@]12CCN(C3CCOCC3)C[C@]1([H])[C@H](C(=O)NC1CC1)CCO2` | -11.95% | -16.69% |
| `CC(C)n1cc(C(=O)NCC(CO)Cc2cccs2)cn1` (stereo not given) | - | 4.57% |
| `CN1CCCN(c2nccc(-c3cc(C(=O)O)ccn3)n2)CC1` | 5.871% | -50% |
| `NC(=O)[C@@H]1CCCN1C(=O)c1csc(-c2ccc(C(F)(F)F)cc2)n1` | -2.668% | -0.77% |
| `CNS(=O)(=O)c1ccc(CNC(=O)C2CN(C)CCO2)cc1` (stereo not given) | - | -2.094% |
| `Cc1nc(C)c(C(=O)NCCn2nc3ccccn3c2=O)s1` | - | -16.22% |
| `COc1ccc(C2CCCN2C(=O)NCCn2ccnc2)cc1` (stereo not given) | - | 0.6242% |
| `CC(C)c1nc2c(n1C)CCN(Cc1cccc(C(N)=O)c1)C2` | - | -5.78% |
| `COc1ccccc1C1CC(=O)Nc2nc(N3CCCCC3)sc21` (stereo not given) | 102.8% | 21.86% |
| `COc1cccc(CN2CC(O)CN(S(C)(=O)=O)CC2=O)c1OC` (stereo not given) | 7.522% | 29.18% |
| `Cc1ccc(C)c(OC2CCN(C(=O)CNc3ccccc3Cl)CC2)c1` | -11.06% | -19.12% |
| `Cc1ccc(F)c(NS(=O)(=O)c2cc(C(=O)O)oc2C)c1` | -15.94% | -3.31% |
| `Cc1nnc(C(C)Nc2cccc(COCCOC(C)C)c2)o1` (stereo not given) | 8.014% | -36.74% |
| `CC(O)CN1CCN(C(=O)c2cc3ccccc3[nH]c2=O)CC1` (stereo not given) | -0.04725% | 8.963% |
| `[H][C@]12CC[C@@]3(N=C(c4ccccc4)NC3=O)[C@@]1([H])CN(CC1CCOCC1)C2` | -18.85% | -7.054% |
| `Cc1ncc(C)c(N2CCCC(CO)(Cc3cccc(Cl)c3)C2)n1` (stereo not given) | 39.92% | 6.233% |
| `CN(CC1CCN(CCO)CC1)CC(O)c1ccc(F)cc1` (stereo not given) | -20.01% | 2.99% |
| `O=C(c1ccncc1)N1CCCC(c2ncncc2-c2ccncc2)C1` (stereo not given) | -43.59% | 1.419% |
| `Cc1nn(C)c2nc(-c3ccccn3)nc(NCCC3CCCN3C)c12` (stereo not given) | -44.58% | -21.22% |
| `COC(=O)c1ccc(C2SCC(=O)Nc3c2cnn3C2CCCC2)cc1` (stereo not given) | 26.52% | -0.235% |
| `Cc1nc(C)c2c(n1)CCN(C(=O)CN(C)C)CC2` | 20.7% | -1.251% |
| `Fc1cccc(CN2CCC(c3noc(-c4cnccn4)n3)CC2)c1F` | 5.414% | -19.36% |
| `CNC(=O)N1CCC2(CC1)CN(C)c1ccc(F)cc12` | 37.2% | -21.49% |
| `Cc1noc(CCNC(=O)c2ccc(Br)c(S(=O)(=O)N(C)C)c2)n1` | -23.27% | -14.76% |
| `CN(Cc1nnc(C2CC2)n1C)C1CCN(CCc2cnn(C)c2)C1` (stereo not given) | -54.33% | -30.97% |
| `CCn1nc(C)c2nnn(CC(=O)Nc3cccc(C)c3)c(=O)c21` | - | -17.62% |
| `CCc1nc(CN2CCCN(C(=O)COCC3CC3)CC2)cs1` | -9.598% | 155.1% |
| `CNc1nc(C)c(C(=O)N2C[C@@H](C(=O)O)[C@H](C3CC3)C2)s1` | 0.684% | 13.19% |
| `NCC1Cc2cc(-c3cncc(C(=O)N4CCCCC4)n3)cc(F)c2O1` (stereo not given) | 37.27% | 14.61% |
| `CCc1ccc(C(=O)NC2CCN(c3cnn(C)c3)C2=O)o1` (stereo not given) | 10.18% | 10.02% |
| `O=C(O)C(F)(F)F.[H][C@@]12CCCO[C@]1([H])[C@@H](Oc1ccccn1)CN2C(=O)N(C)C` | 4.824% | 0.8275% |
| `CC(NC(=O)CN1CCN(Cc2ccc(Br)s2)CC1)c1ccccc1` (stereo not given) | -17.11% | -45.06% |
| `O=C(NCc1ccc(OCC2CC2)nc1)C1COc2ccccc2O1` (stereo not given) | 16.73% | 0.8833% |
| `Nc1ccc(CC2CCCN(Cc3c[nH]cn3)C2)nn1` (stereo not given) | -0.2446% | 15.86% |
| `COCCc1noc(Cn2ccc3ncccc3c2=O)n1` | -14.05% | -4.606% |
| `O=C(O)C1(n2ccc(-c3ccco3)n2)CCN(Cc2cccs2)CC1` | -23.95% | -10.36% |
| `CCC(C)NC(=O)CS(=O)(=O)Cc1cc(C)ccc1C` (stereo not given) | - | 17.87% |
| `CCOC(=O)[C@@H]1[C@@H](O)C(=O)N(C)C12CCN(C(=O)c1ccco1)CC2` | 2.549% | -9.887% |
| `NC(=O)c1cncc(N2CCN(Cc3cccc4nsnc34)CC2)n1` | 40.68% | -28.17% |
| `CNc1ncc(CN(C)C(=O)CCc2cc3n(n2)CCCNC3)cn1` | 15.97% | 17.42% |
| `Cc1cc(C)c2cc(CNCC3CCCO3)c3nn(C)c(=O)n3c2c1` (stereo not given) | 12.47% | -13.8% |
| `CC(c1ccc(F)c(F)c1)N(C)CCS(=O)(=O)CCC(N)=O` (stereo not given) | 31.68% | 53.46% |
| `CN1CCN(C(=O)c2cc(-c3ccco3)cs2)CC1` | 25.84% | 10.52% |
| `Cc1noc(C(C)C)c1C(=O)NCCCN1CCC(C)CC1` | - | -1.043% |
| `COCCN1CCC(c2nc3c([nH]2)CC(C)(C)CNC3=O)C1` (stereo not given) | 2.928% | -13.99% |
| `Cc1cn(Cc2ccc(F)c(F)c2)nc1N` | -46.31% | -38.4% |
| `Cc1[nH]ccc1C(=O)NCc1ncoc1C` | 6.322% | -17.59% |
| `Cc1cc(C)n(CC(=O)N2CCC(NS(=O)(=O)c3ccccc3)CC2)n1` | - | 7.531% |
| `COc1ccccc1C1CNC(=O)c2nc(-c3cn(C)nc3C)[nH]c2C1` (stereo not given) | - | 6.614% |
| `COC(=O)c1ccc2c(-c3ccnc(N[C@@H](C)CO)n3)c[nH]c2c1` | 10.42% | 11.68% |
| `COc1c(CNC2CCN(CC(=O)NC3CC3)CC2)c(C)nn1C` | - | -9.976% |
| `CC(C)CNC(=O)CN1C=Nc2ccccc2S1(=O)=O` | 6.937% | -13.82% |
| `O=C(c1ccc(C2CCCN2)s1)N1CC=CC1` (stereo not given) | 18.64% | 5.552% |
| `Cc1nccc(C(=O)N2CCCN(Cc3nccn3C(C)C)CC2)n1` | - | 47.2% |
| `[O-][S+](CCN1CCc2[nH]nc(C(F)(F)F)c2C1)c1ccccc1` (stereo not given) | - | -9.309% |
| `Cc1ccc2c(c1)C1(CCNCC1)CN2C(=O)CN(C)C.O=C(O)C(F)(F)F.O=C(O)C(F)(F)F` | 0.8832% | -7.798% |
| `CCOCCCNC(=O)CN(c1cc(C)cc(C)c1)S(C)(=O)=O` | - | 7.341% |
| `COc1ncccc1NC(=O)c1cccc(C)n1` | 3.777% | 31.05% |
| `CC(C)NC(=O)N1CCC2(CC(=O)N(c3ccsc3)C2)C1` (stereo not given) | 28.79% | -20.02% |
| `Cc1nonc1C1CCCN1Cc1ccc(C(=O)Nc2nccs2)cc1` (stereo not given) | -4.352% | 5.405% |
| `COCCC(=O)N1CCC2(CCCN2Cc2cccc(Cl)c2)C1` (stereo not given) | -2.471% | -0.2841% |
| `Cc1nn(C)c(N(C)C)c1CNCCNS(C)(=O)=O` | 46.17% | 47.17% |

For reference, 4 entries once more:

Compound	Mtb growth Cornell	Mtb heat-shock
CCC(C)NC(=O)CS(=O)(=O)Cc1cc(C)ccc1C (stereo not given)	-	17.87%
Cc1noc(C(C)C)c1C(=O)NCCCN1CCC(C)CC1	-	-1.043%
COc1ccccc1C1CC(=O)Nc2nc(N3CCCCC3)sc21 (stereo not given)	102.8%	21.86%
Cc1ccc2c(c1)C1(CCNCC1)CN2C(=O)CN(C)C.O=C(O)C(F)(F)F.O=C(O)C(F)(F)F	0.8832%	-7.798%